Assay results taken from the supplement of paper PMC10849652.
Some of the results follow.

The chains behind the UniProt entries cited, without tags or fusion partners. Where a name states a change or a piece, a line headed by the entry shows the natural chain unless it says otherwise.
UniProt O43924: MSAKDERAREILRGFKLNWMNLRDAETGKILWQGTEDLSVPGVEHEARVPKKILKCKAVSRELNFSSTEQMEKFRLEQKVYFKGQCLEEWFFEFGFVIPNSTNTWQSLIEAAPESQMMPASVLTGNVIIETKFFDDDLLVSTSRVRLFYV
UniProt O43933: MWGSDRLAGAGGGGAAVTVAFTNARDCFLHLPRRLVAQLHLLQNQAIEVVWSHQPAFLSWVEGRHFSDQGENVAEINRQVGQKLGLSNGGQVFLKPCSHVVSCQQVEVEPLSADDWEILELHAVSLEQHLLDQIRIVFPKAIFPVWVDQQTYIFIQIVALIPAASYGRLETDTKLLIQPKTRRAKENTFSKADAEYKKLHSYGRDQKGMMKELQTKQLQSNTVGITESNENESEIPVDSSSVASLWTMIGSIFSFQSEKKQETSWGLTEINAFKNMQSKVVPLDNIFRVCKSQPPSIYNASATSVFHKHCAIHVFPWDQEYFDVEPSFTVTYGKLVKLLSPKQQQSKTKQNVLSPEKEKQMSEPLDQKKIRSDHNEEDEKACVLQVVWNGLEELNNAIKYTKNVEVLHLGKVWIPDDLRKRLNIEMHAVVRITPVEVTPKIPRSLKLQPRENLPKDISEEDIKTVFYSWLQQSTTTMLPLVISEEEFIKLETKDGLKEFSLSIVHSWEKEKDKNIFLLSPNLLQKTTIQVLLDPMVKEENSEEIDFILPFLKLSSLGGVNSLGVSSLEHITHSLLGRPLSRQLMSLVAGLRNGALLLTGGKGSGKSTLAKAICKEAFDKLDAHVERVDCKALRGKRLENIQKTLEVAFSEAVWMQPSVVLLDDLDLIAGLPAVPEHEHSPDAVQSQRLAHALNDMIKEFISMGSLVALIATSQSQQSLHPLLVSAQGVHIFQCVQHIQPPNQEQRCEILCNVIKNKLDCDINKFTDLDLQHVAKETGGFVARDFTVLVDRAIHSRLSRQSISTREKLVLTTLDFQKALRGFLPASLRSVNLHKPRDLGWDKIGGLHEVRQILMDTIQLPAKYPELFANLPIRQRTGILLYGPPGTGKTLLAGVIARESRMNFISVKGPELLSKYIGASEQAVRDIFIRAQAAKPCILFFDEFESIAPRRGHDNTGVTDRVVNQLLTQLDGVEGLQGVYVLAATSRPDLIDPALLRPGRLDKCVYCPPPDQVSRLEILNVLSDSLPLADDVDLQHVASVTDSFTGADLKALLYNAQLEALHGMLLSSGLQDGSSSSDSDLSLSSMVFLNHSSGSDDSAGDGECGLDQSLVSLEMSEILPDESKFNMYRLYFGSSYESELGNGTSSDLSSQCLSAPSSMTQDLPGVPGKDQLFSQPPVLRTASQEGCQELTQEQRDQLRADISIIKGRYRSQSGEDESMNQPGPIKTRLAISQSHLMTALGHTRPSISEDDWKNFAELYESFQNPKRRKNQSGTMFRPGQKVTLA
UniProt P22061: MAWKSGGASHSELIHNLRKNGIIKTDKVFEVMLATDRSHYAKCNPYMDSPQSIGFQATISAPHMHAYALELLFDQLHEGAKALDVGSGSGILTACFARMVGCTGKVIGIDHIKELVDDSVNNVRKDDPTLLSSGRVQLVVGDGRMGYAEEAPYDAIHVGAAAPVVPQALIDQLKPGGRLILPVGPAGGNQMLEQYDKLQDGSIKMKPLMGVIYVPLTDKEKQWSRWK
UniProt Q58A45: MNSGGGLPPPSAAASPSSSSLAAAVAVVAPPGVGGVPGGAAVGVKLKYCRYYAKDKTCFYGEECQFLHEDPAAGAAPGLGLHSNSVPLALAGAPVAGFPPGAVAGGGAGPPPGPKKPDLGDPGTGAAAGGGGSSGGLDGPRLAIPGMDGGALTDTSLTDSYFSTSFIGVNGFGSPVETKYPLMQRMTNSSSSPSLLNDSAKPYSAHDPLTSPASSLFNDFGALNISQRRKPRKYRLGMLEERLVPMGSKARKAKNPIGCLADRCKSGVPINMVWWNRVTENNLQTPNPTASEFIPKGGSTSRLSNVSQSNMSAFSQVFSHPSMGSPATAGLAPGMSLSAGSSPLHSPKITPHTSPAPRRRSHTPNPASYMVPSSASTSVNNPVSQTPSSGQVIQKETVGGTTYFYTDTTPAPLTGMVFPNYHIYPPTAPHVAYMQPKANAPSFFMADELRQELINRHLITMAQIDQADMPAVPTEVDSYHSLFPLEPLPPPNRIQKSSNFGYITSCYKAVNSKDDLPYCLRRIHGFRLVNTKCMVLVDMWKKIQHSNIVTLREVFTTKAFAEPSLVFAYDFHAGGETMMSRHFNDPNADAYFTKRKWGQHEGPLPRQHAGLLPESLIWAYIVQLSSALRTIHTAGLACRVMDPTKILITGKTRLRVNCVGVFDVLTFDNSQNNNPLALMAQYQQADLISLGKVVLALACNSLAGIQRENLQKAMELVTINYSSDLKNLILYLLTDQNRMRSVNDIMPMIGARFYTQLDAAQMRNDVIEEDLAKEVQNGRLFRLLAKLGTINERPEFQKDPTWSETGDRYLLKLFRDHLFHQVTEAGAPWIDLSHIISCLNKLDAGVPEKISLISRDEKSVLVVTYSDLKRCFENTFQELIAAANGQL
UniProt Q8N7B6: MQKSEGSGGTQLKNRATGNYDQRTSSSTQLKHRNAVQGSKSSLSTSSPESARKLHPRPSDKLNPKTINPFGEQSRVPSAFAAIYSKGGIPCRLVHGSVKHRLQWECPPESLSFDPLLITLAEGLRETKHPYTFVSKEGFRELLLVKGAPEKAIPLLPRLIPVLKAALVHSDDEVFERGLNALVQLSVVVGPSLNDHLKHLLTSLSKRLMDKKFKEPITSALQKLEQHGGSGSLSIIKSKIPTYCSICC
UniProt Q08174: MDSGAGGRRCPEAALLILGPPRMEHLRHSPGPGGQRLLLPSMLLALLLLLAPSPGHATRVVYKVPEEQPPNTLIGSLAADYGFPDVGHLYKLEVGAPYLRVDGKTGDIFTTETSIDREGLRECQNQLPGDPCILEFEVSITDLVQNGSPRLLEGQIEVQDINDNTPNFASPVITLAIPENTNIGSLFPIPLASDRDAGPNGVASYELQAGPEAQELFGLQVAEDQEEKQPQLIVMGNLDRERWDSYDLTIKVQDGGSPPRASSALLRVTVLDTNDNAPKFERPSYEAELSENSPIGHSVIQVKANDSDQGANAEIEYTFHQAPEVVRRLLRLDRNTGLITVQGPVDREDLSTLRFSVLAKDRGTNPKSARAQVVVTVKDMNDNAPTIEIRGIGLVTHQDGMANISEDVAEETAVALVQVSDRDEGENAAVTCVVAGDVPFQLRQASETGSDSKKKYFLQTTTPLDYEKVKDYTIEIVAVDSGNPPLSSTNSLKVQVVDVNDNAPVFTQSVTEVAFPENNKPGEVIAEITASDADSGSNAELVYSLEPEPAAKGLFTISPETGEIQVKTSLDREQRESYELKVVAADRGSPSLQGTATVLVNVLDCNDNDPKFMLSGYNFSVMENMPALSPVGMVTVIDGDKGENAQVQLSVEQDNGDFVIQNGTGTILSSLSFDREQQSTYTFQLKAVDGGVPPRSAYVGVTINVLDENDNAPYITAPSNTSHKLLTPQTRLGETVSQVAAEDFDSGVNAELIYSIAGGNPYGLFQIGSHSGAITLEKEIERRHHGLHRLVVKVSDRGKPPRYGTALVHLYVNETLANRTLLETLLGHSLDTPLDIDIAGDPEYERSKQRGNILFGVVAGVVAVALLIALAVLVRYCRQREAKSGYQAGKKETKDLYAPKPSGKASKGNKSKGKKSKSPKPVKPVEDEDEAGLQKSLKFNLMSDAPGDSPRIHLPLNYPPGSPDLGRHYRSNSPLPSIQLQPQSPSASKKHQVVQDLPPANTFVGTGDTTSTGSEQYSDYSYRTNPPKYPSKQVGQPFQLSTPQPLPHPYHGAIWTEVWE
UniProt Q9H999: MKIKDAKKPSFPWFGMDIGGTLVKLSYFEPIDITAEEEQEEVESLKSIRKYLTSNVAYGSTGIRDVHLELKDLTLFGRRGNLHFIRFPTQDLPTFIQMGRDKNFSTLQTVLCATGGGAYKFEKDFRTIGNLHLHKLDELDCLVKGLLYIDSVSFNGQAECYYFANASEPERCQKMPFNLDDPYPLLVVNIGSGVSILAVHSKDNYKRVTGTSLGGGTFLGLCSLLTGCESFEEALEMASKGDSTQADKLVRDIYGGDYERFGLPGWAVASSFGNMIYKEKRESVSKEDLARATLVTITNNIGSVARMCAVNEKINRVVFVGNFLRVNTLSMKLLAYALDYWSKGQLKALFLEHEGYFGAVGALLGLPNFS
UniProt Q15154: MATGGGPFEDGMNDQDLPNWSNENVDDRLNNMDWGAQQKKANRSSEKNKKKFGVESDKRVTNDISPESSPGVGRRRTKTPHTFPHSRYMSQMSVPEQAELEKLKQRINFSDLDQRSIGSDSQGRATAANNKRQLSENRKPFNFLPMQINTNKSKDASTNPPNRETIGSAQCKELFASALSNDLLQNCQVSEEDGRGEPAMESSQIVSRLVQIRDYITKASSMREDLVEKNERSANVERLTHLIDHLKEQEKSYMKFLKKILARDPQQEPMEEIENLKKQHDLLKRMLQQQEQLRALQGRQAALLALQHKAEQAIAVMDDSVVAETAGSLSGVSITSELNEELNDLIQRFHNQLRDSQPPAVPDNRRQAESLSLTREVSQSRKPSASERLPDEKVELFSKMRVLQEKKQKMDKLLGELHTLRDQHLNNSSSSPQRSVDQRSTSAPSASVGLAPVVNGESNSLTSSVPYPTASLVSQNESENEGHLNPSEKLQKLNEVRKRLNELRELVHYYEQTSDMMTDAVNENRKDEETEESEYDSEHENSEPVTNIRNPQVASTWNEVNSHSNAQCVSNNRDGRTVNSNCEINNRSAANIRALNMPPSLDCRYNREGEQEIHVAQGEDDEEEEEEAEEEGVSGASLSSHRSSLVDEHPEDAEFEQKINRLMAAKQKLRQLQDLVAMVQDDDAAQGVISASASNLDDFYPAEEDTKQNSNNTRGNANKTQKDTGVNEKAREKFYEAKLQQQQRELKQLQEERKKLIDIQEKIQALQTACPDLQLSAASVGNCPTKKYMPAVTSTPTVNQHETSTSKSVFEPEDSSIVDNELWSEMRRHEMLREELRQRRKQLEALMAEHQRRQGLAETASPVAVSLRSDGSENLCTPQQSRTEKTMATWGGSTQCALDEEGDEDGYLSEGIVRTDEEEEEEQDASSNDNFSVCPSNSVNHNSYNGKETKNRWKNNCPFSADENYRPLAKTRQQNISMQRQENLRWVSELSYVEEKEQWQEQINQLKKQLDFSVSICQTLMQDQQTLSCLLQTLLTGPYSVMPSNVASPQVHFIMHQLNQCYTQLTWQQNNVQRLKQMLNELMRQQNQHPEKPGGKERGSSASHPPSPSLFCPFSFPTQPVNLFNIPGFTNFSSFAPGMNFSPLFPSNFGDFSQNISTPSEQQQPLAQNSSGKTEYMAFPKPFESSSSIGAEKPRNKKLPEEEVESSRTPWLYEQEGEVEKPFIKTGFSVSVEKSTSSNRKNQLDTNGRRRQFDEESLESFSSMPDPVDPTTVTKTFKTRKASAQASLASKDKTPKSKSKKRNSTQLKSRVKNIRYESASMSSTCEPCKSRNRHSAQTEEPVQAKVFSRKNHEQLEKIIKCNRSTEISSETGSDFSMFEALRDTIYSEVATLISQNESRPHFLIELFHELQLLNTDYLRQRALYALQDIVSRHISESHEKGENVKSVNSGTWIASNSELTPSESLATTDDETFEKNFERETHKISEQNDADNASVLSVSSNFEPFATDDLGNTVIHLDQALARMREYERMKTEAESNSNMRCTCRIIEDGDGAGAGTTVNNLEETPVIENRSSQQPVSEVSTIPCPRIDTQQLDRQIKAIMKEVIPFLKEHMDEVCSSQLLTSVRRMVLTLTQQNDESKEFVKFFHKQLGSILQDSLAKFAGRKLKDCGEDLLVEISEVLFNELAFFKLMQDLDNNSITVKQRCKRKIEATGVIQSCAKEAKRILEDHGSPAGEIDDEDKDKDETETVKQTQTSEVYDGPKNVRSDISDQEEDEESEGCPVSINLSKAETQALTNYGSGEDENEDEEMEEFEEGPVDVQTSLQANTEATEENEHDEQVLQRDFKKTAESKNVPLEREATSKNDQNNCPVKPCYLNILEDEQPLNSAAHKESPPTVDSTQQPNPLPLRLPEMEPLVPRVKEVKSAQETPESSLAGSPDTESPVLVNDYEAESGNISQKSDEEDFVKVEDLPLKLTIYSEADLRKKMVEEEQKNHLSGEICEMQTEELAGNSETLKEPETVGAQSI
UniProt Q86U42: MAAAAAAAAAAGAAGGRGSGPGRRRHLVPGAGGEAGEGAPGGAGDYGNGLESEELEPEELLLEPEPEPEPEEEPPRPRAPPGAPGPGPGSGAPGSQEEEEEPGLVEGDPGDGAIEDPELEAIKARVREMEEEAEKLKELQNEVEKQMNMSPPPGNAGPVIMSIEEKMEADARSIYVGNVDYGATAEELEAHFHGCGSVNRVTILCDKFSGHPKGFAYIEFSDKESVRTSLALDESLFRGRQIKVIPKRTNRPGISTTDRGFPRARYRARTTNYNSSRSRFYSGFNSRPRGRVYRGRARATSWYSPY

How the values were obtained:
Test in all cases: log2 fold change, soluble protein after heating vs DMSO (PISA); higher = thermal stabilisation; K562 cells, 10 uM, 30 min; active = over 0.2 and 3.5 SD of the protein, either way, in both replicates (recomputed)
[1] = compound: COC1=CC=C(C=C1)CN2C=CC3=C2C=C(C=C3)C(=O)NO
Outline: (§1)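 K562 cells at 2×10^6 cells/mL were exposed to 10 μM compound for 30 min, then aliquots were heated for 3 min across 48°C-58°C, pooled, and extracted in PBS containing 0.5% NP-40 at 4°C. The supernatant after 21,000xg for 90 min was taken as soluble protein and measured by TMTpro 16plex LC-MS/MS with channel sums equalised. Thermal stability is reported relative to control samples, with values from duplicates. Fold changes are given on a log2 scale.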

filanesib = compound: CON(C)C(=O)N1N=C(c2cc(F)ccc2F)S[C@@]1(CCCN)c1ccccc1 [filanesib]
Outline: as §1

zotarolimus = compound: CO[C@H]1C[C@@H]2CC[C@@H](C)[C@@](O)(O2)C(=O)C(=O)N2CCCC[C@H]2C(=O)O[C@H]([C@H](C)C[C@@H]2CC[C@H](n3cnnn3)[C@H](OC)C2)CC(=O)[C@H](C)/C=C(\C)[C@@H](O)[C@@H](OC)C(=O)[C@H](C)C[C@H](C)/C=C/C=C/C=C/1C [zotarolimus]
Outline: as §1

idasanutlin = compound: COc1cc(C(=O)O)ccc1NC(=O)[C@@H]1N[C@@H](CC(C)(C)C)[C@](C#N)(c2ccc(Cl)cc2F)[C@H]1c1cccc(Cl)c1F [idasanutlin]
Outline: as §1

alisertib = compound: COc1cc(Nc2ncc3c(n2)-c2ccc(Cl)cc2C(c2c(F)cccc2OC)=NC3)ccc1C(=O)O [alisertib]
Outline: as §1

[2] = compound: COc1cc2nc(-c3cc(F)ccc3O)nc(N[C@@H]3CNC[C@H]3C(C)(C)O)c2cc1OC
Outline: as §1

[3] = compound: COc1cccc2cc(-c3nc([C@H]4CC[C@H](C(=O)O)CC4)n4ncnc(N)c34)[nH]c12
Outline: as §1

lapatinib = compound: CS(=O)(=O)CCNCc1ccc(-c2ccc3ncnc(Nc4ccc(OCc5cccc(F)c5)c(Cl)c4)c3c2)o1 [lapatinib]
Outline: as §1

pictilisib = compound: CS(=O)(=O)N1CCN(Cc2cc3nc(-c4cccc5[nH]ncc45)nc(N4CCOCC4)c3s2)CC1 [pictilisib]
Outline: as §1

gefitinib = compound: COc1cc2ncnc(Nc3ccc(F)c(Cl)c3)c2cc1OCCCN1CCOCC1 [gefitinib]
Outline: as §1

Measured: log2 fold change

PATL1 (UniProt Q86TB9)
inactive: [1] -0.015 | filanesib -0.009 | zotarolimus 0.076 | idasanutlin 0.049 | alisertib -0.035 | [2] -0.135 | [3] 0.069 | lapatinib 0.05 | pictilisib -0.115

PAXIP1 (UniProt Q6ZW49)
inactive: [1] 0.131 | filanesib 0.049 | zotarolimus 0.011 | idasanutlin 0.085 | alisertib -0.042 | [2] -0.009 | gefitinib 0.077 | [3] -0.123 | lapatinib 0.027 | pictilisib 0.05

PCK2 (UniProt Q16822)
inactive: filanesib -0.007 | zotarolimus 0.045 | idasanutlin -0.044 | alisertib -0.035 | [2] 0.024 | gefitinib -0.025 | [3] 0.027 | lapatinib -0.045 | pictilisib 0.011
active: [1] -0.339

PDCD2 (UniProt Q16342)
inactive: [1] -0.018 | filanesib 0.21 | zotarolimus 0.036 | alisertib 0.014 | [3] -0.178

PDSS2 (UniProt Q86YH6)
inactive: [1] 0.23 | filanesib 0.025 | zotarolimus 0.184 | idasanutlin 0.157 | [2] -0.286 | gefitinib 0.15 | lapatinib 0.162 | pictilisib -0.038

PDCD6 (UniProt O75340)
inactive: [1] -0.06 | filanesib -0.124 | zotarolimus -0.03 | idasanutlin -0.106 | alisertib 0.092 | [2] 0.047 | gefitinib -0.021 | [3] 0.013 | lapatinib -0.035 | pictilisib 0.038

PELO (UniProt Q9BRX2)
inactive: [1] 0.001 | filanesib 0.128 | zotarolimus 0.158 | idasanutlin -0.024 | alisertib 0.489 | [2] 0.053 | gefitinib 0.009 | [3] 0.001 | lapatinib -0.06 | pictilisib -0.111

PDE6D (UniProt O43924)
inactive: [1] -0.036 | filanesib 0.101 | zotarolimus -0.179 | idasanutlin -0.092 | alisertib -0.031 | gefitinib 0.076 | [3] 0.002 | pictilisib 0.078

PEX1 (UniProt O43933)
inactive: [1] -0.011 | filanesib -0.069 | zotarolimus 0.02 | idasanutlin -0.003 | alisertib -0.022 | [2] 0.023 | gefitinib 0.072 | [3] 0.055 | lapatinib 0.038 | pictilisib 0.061

PCMT1 isoform 2 (UniProt P22061)
inactive: [1] -0.085 | filanesib -0.081 | zotarolimus 0.03 | idasanutlin -0.066 | alisertib -0.029 | [2] 0.034 | gefitinib 0.02 | [3] 0.036 | lapatinib -0.045 | pictilisib 0.063

PCNT (UniProt O95613)
inactive: [1] -0.228 | filanesib 0.006 | zotarolimus -0.001 | idasanutlin 0.075 | alisertib 0.02 | [2] 0.055 | gefitinib 0.085 | [3] 0.257 | lapatinib -0.174 | pictilisib 0.285

PAN3 (UniProt Q58A45)
inactive: pictilisib 0.175

PCMTD2 (UniProt Q9NV79)
inactive: alisertib -0.032 | gefitinib -0.109 | [3] 0.075

PDE3B (UniProt Q13370)
inactive: [1] -0.17 | alisertib -0.057 | [3] 0.46

PAXBP1 (UniProt Q9Y5B6)
inactive: [1] 0.085 | pictilisib -0.209

PACRGL (UniProt Q8N7B6)
inactive: filanesib 0.056

PCDH1 isoform 2 (UniProt Q08174)
inactive: filanesib -0.03

PCMTD1 (UniProt Q96MG8)
inactive: [1] -0.091 | gefitinib 0.189

PEX10 isoform 2 (UniProt O60683)
inactive: filanesib 0.033 | zotarolimus -0.085 | idasanutlin 0.096 | alisertib -0.085 | [2] -0.068 | [3] -0.132 | lapatinib 0.061 | pictilisib -0.086

PAN2 (UniProt Q504Q3)
inactive: gefitinib 0.013

PCF11 (UniProt O94913)
inactive: [1] -0.169 | zotarolimus -0.119 | idasanutlin -0.097 | alisertib 0.015 | [2] 0.076 | [3] 0.106 | lapatinib 0.012 | pictilisib 0.027

PCSK6 isoform 7 (UniProt P29122)
inactive: filanesib 0.024 | zotarolimus -0.163 | idasanutlin -0.072 | alisertib -0.125 | [2] 0.165 | gefitinib 0.016 | [3] 0.131 | lapatinib -0.131 | pictilisib 0.227

PANK1 (UniProt Q8TE04)
inactive: filanesib -0.055 | zotarolimus 0.015 | idasanutlin 0.133 | alisertib 0.041 | [2] 0.019 | gefitinib 0.038 | [3] 0.099 | lapatinib 0.044 | pictilisib 0.061

PCBP2 (UniProt F8VZX2)
inactive: [1] 0.03 | zotarolimus 0.158 | alisertib -0.04 | gefitinib -0.111 | [3] -0.018

PANK3 (UniProt Q9H999)
inactive: filanesib 0.008 | zotarolimus -0.066 | idasanutlin 0.152 | [2] 0.084 | gefitinib -0.01 | lapatinib -0.03 | pictilisib 0.079

PCM1 isoform 2 (UniProt Q15154)
inactive: filanesib 0.163 | alisertib 0.117 | [3] 0.136 | pictilisib 0.007

PACS2 isoform 2 (UniProt Q86VP3)
inactive: filanesib -0.225

PAF1 (UniProt Q8N7H5)
inactive: zotarolimus -0.096 | alisertib -0.034 | [3] 0.026 | pictilisib -0.326

PDE4DIP (UniProt E9PS60)
inactive: [1] 0 | zotarolimus -0.032

PARD3 (UniProt Q8TEW0)
inactive: [2] -0.05 | lapatinib 0.134 | pictilisib -0.123

PALM (UniProt O75781)
inactive: [1] -0.112 | alisertib -0.06 | [3] -0.177

PAICS (UniProt D6RF62)
inactive: idasanutlin 0.217 | [2] 0.327 | lapatinib -0.317 | pictilisib -0.083

PAFAH1B1 (UniProt I3L3N5)
inactive: [1] -0.219 | zotarolimus -0.147 | idasanutlin -0.122 | alisertib 0.088 | [2] 0.202 | [3] 0.009 | lapatinib -0.183

PARP4 (UniProt Q9UKK3)
inactive: filanesib -0.023

PAGE4 (UniProt O60829)
inactive: filanesib -0.05 | zotarolimus -0.103 | idasanutlin -0.082 | alisertib 0.001 | gefitinib 0.029 | [3] 0.036 | pictilisib 0.174

PCSK7 (UniProt Q16549)
inactive: [2] -0.145 | lapatinib 0.046

PAPOLA (UniProt G3XAH6)
inactive: gefitinib 0.356

PDIA4, A0A499FI48
inactive: [1] -0.047 | idasanutlin 0.217 | alisertib 0.084 | [2] -0.102 | [3] -0.233 | lapatinib 0.059 | pictilisib -0.068

PABPN1 (UniProt Q86U42)
inactive: zotarolimus -0.041 | alisertib -0.055 | [3] 0.022 | pictilisib 0.212

PCYT2 (UniProt I3L1F9)
inactive: [2] 0.125 | lapatinib -0.046

PDE4A (UniProt P27815)
inactive: [1] -0.442 | zotarolimus 0.07 | idasanutlin 0.098 | [2] 0.112 | lapatinib -0.016

PCNX1 (UniProt Q96RV3)
inactive: alisertib -0.059 | [2] 0.34 | gefitinib -0.028 | [3] 0.035 | lapatinib -0.475

PDXP (UniProt B1AHD3)
inactive: zotarolimus 0.185

PCNX3 (UniProt Q9H6A9)
inactive: [2] 0.176 | lapatinib -0.133
